Data reported in patent US20150166646A1, “Methods and Compositions for Treating or Diagnosing Melanoma” (The Wistar Institute of Anatomy and Biology, priority 2012, published 2015).
At least one compound was matched to its structure with a doubt left.

Test system: melanoma cells co-cultured with macrophages
Test: Melanoma/macrophage transwell co-culture: growth (WST-1) and cell death
Assay type: cell-based, human
Details: co-culture with macrophages in presence of PLX4720, 3 days

CC(=O)Nc1cccc(-n2c(=O)n(C3CC3)c(=O)c3c(Nc4ccc(I)cc4F)n(C)c(=O)c(C)c32)c1 [Trametinib]
macrophage-mediated resistance of melanoma cells to BRAFi (cell growth, anti-cell death effect): partially suppressed or reversed
